The list does not hold the whole screen: it gathers tests that were run many times, whatever their T/C, doses with no T/C, and many T/C values between a quarter and a half above the control. Further doses and runs are listed elsewhere. T/C is the treated group as % of the vehicle group. Schedules are NCI's codes, read here as Q, the interval in days (D) or hours (H), X, the number of doses. Some values lie below zero, which means that the treated tumours became smaller. Some T/C values carry the count of animals alive at the toxicity check (mostly the fifth day); without a count, all were alive then. Some doses have a count of surviving animals in place of a T/C: the source files T/C as zero there, which appears to mark a toxic dose or a test without result, not a measured value. Survivors were counted at the toxicity check, usually on the fifth day, unless a day is given; later deaths do not show. Some entries hold several experiments; the values are given in rising order.
Tested on: CD8F1 mice, subcutaneous mammary adenocarcinoma, T/C%
Test: NCI In Vivo Anticancer Drug Screen. Data for tumor model Mammary Adenocarcinoma CD8F1 (subcutaneous) in CD8F1
Settings: higher T/C = larger tumour
Method in brief: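 Compound-treated versus vehicle-treated mice with transplantable tumors; survival or tumor size compared as T/C.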

Nc1ccc2c(c1)CN1C(=O)c3ccccc3C1=N2
T/C (T/C endpoint: median tumor weight change, dose: 250.0 mg/kg/injection, schedule: Q01DX001 (ip), vehicle: saline with Tween-80, evaluated on day 22): 99 % of control | T/C (T/C endpoint: median tumor weight change, dose: 250.0 mg/kg/injection, schedule: Q01DX001 (ip), vehicle: saline with Tween-80, evaluated on day 24): 96 % of control | T/C (T/C endpoint: median tumor weight change, dose: 250.0 mg/kg/injection, schedule: Q01DX001 (ip), vehicle: saline with Tween-80, evaluated on day 27): 97 % of control | T/C (T/C endpoint: median tumor weight change, dose: 250.0 mg/kg/injection, schedule: Q01DX001 (ip), vehicle: saline with Tween-80, evaluated on day 28): 139 % of control | T/C (T/C endpoint: median tumor weight change, dose: 250.0 mg/kg/injection, schedule: Q01DX001 (ip), vehicle: saline with Tween-80, evaluated on day 29): 88 % of control | T/C (T/C endpoint: median tumor weight change, dose: 250.0 mg/kg/injection, schedule: Q01DX001 (ip), vehicle: saline with Tween-80, evaluated on day 36): 16 % of control [9 of 10 alive on day 36] | T/C (T/C endpoint: median tumor weight change, dose: 500.0 mg/kg/injection, schedule: Q01DX001 (ip), vehicle: saline with Tween-80, evaluated on day 22): 104 % of control | T/C (T/C endpoint: median tumor weight change, dose: 500.0 mg/kg/injection, schedule: Q01DX001 (ip), vehicle: saline with Tween-80, evaluated on day 24): 61 % of control | T/C (T/C endpoint: median tumor weight change, dose: 500.0 mg/kg/injection, schedule: Q01DX001 (ip), vehicle: saline with Tween-80, evaluated on day 27): 50 % of control | T/C (T/C endpoint: median tumor weight change, dose: 500.0 mg/kg/injection, schedule: Q01DX001 (ip), vehicle: saline with Tween-80, evaluated on day 28): 89 % of control | T/C (T/C endpoint: median tumor weight change, dose: 500.0 mg/kg/injection, schedule: Q01DX001 (ip), vehicle: saline with Tween-80, evaluated on day 29): 59 % of control [9 of 10 alive on day 29] | T/C (T/C endpoint: median tumor weight change, dose: 500.0 mg/kg/injection, schedule: Q01DX001 (ip), vehicle: saline with Tween-80, evaluated on day 36): 34 % of control | T/C (T/C endpoint: median tumor weight change, dose: 1000.0 mg/kg/injection, schedule: Q01DX001 (ip), vehicle: saline with Tween-80, evaluated on day 22): 58 % of control | T/C (T/C endpoint: median tumor weight change, dose: 1000.0 mg/kg/injection, schedule: Q01DX001 (ip), vehicle: saline with Tween-80, evaluated on day 24): 67 % of control | T/C (T/C endpoint: median tumor weight change, dose: 1000.0 mg/kg/injection, schedule: Q01DX001 (ip), vehicle: saline with Tween-80, evaluated on day 27): 12 % of control [9 of 10 alive on day 27] | T/C (T/C endpoint: median tumor weight change, dose: 1000.0 mg/kg/injection, schedule: Q01DX001 (ip), vehicle: saline with Tween-80, evaluated on day 28): 55 % of control | T/C (T/C endpoint: median tumor weight change, dose: 1000.0 mg/kg/injection, schedule: Q01DX001 (ip), vehicle: saline with Tween-80, evaluated on day 29): 39 % of control | T/C (T/C endpoint: median tumor weight change, dose: 1000.0 mg/kg/injection, schedule: Q01DX001 (ip), vehicle: saline with Tween-80, evaluated on day 36): -7 % of control | survivor count (T/C endpoint: median tumor weight change, dose: 2000.0 mg/kg/injection, schedule: Q01DX001 (ip), vehicle: saline with Tween-80): 1 of 10 on day 22, 1 of 10 on day 27, 4 of 10 on day 28, 4 of 10 on day 29

CN=C(N)N/N=C(\c1ccccc1)c1ccc(Br)cc1
survivor count (T/C endpoint: median tumor weight change, dose: 125.0 mg/kg/injection, schedule: Q01DX001 (ip), vehicle: saline with Tween-80): 0 of 10 on day 28 | survivor count (T/C endpoint: median tumor weight change, dose: 250.0 mg/kg/injection, schedule: Q01DX001 (ip), vehicle: saline with Tween-80): 0 of 10 on day 28

CCOC(=O)C(CC(C)C)NC(=O)C(Cc1ccc(N(CCCl)CCCl)cc1)NC(C)=O (stereo unspecified)
survivor count (T/C endpoint: median tumor weight (est.), dose: 64.0 mg/kg/injection, schedule: Q07DX005 (ip), vehicle: saline with Tween-80): 6 of 10 on day 30 | survivor count (T/C endpoint: median tumor weight (est.), dose: 128.0 mg/kg/injection, schedule: Q07DX005 (ip), vehicle: saline with Tween-80): 2 of 10 on day 30 and 4 of 10 on day 30 | survivor count (T/C endpoint: median tumor weight (est.), dose: 256.0 mg/kg/injection, schedule: Q07DX005 (ip), vehicle: saline with Tween-80): 0 of 10 on day 30

COc1c(C=O)c2c(c(OC)c1OC)-c1ccc(OC)c(=O)cc1[C@@H](NC(C)=O)CC2
T/C (T/C endpoint: median tumor weight change, dose: 7.81 mg/kg/injection, schedule: Q01DX001 (ip), vehicle: Klucel (hydroxypropylcellulose) (HPC), evaluated on day 27): 125 % of control | survivor count (T/C endpoint: median tumor weight change, dose: 125.0 mg/kg/injection, schedule: Q01DX001 (ip), vehicle: Klucel (hydroxypropylcellulose) (HPC)): 0 of 10 on day 26 and 5 of 10 on day 27

c1cc(-c2cc3ccc(C4=NCCN4)cc3[nH]2)ccc1C1=NCCN1
survivor count (T/C endpoint: median tumor weight (est.), dose: 6.25 mg/kg/injection, schedule: Q07DX005 (ip), vehicle: saline): 6 of 10 on day 30 | T/C (T/C endpoint: median tumor weight (est.), dose: 12.5 mg/kg/injection, schedule: Q07DX005 (ip), vehicle: saline, evaluated on day 30): 149 % of control | survivor count (T/C endpoint: median tumor weight (est.), dose: 50.0 mg/kg/injection, schedule: Q07DX005 (ip), vehicle: suspension in saline): 3 of 10 on day 30 | survivor count (T/C endpoint: median tumor weight (est.), dose: 100.0 mg/kg/injection, schedule: Q07DX005 (ip), vehicle: suspension in saline): 0 of 10 on day 30 | survivor count (T/C endpoint: median tumor weight (est.), dose: 200.0 mg/kg/injection, schedule: Q07DX005 (ip), vehicle: suspension in saline): 0 of 10 on day 30 | T/C (T/C endpoint: median tumor weight change, dose: 31.0 mg/kg/injection, schedule: Q01DX001 (ip), vehicle: suspension in saline, evaluated on day 28): 136 % of control | survivor count (T/C endpoint: median tumor weight change, dose: 125.0 mg/kg/injection, schedule: Q01DX001 (ip), vehicle: suspension in saline): 1 of 10 on day 28 | survivor count (T/C endpoint: median tumor weight change, dose: 250.0 mg/kg/injection, schedule: Q01DX001 (ip), vehicle: suspension in saline): 0 of 10 on day 28

COc1cc([C@@H]2c3cc4c(cc3[C@@H](OC3OC5COC(C)OC5C(O)C3O)[C@H]3COC(=O)[C@H]23)OCO4)cc(OC)c1O (stereo partly specified)
survivor count (T/C endpoint: median tumor weight (est.), dose: 64.0 mg/kg/injection, schedule: Q07DX005 (ip), vehicle: saline): 5 of 10

COc1cc2cc(c1Cl)N(C)C(=O)CC(OC(=O)CC(C)C)C1(C)OC1C(C)C1CC(O)(NC(=O)O1)C(OC)/C=C/C=C(C)C2 (stereo unspecified)
T/C (T/C endpoint: median tumor weight (est.), dose: 9.3 micrograms/kg/injection, schedule: Q07DX005 (ip), vehicle: saline + alcohol, evaluated on day 30): 147 % of control [9 of 10 alive]

S=C=NCCc1ccccc1
T/C (T/C endpoint: median tumor weight (est.), dose: 6.25 mg/kg/injection, schedule: Q07DX005 (ip), vehicle: saline with Tween-80, evaluated on day 32): 131 % of control | T/C (T/C endpoint: median tumor weight (est.), dose: 12.5 mg/kg/injection, schedule: Q07DX005 (ip), vehicle: saline with Tween-80, evaluated on day 32): 127 % of control

COC1=C(N)C(=O)c2nc(-c3nc(C(=O)O)c(C)c(-c4ccc(OC)c(OC)c4O)c3N)ccc2C1=O
survivor count (T/C endpoint: median tumor weight (est.), dose: 0.8 mg/kg/injection, schedule: Q07DX005 (ip), vehicle: Klucel (hydroxypropylcellulose) (HPC)): 2 of 10 | survivor count (T/C endpoint: median tumor weight change, dose: 2.0 mg/kg/injection, schedule: Q01DX001 (ip), vehicle: Klucel (hydroxypropylcellulose) (HPC)): 4 of 10 on day 29, 6 of 10 on day 30, 6 of 10 on day 34 | survivor count (T/C endpoint: median tumor weight change, dose: 4.0 mg/kg/injection, schedule: Q01DX001 (ip), vehicle: Klucel (hydroxypropylcellulose) (HPC)): 0 of 10 on day 29, 0 of 10 on day 30, 0 of 10 on day 34

COC(=O)Nc1cccc(-c2nc3ccc(NC(=O)OC)cc3c(=O)n2-c2ccccc2)c1
T/C (T/C endpoint: mean tumor weight, dose: 200.0 mg/kg/injection, schedule: Q07DX006 (ip), vehicle: saline, evaluated on day 44): 133 % of control | T/C (T/C endpoint: mean tumor weight, dose: 400.0 mg/kg/injection, schedule: Q07DX006 (ip), vehicle: saline, evaluated on day 44): 131 % of control [9 of 10 alive] | T/C (T/C endpoint: median tumor weight (est.), dose: 25.0 mg/kg/injection, schedule: Q04DX005 (ip), vehicle: saline, evaluated on day 30): 145 % of control | T/C (T/C endpoint: median tumor weight (est.), dose: 100.0 mg/kg/injection, schedule: Q04DX005 (ip), vehicle: saline, evaluated on day 30): 142 % of control [9 of 10 alive] | T/C (T/C endpoint: median tumor weight (est.), dose: 100.0 mg/kg/injection, schedule: Q07DX004 (ip), vehicle: saline, evaluated on day 30): 143 % of control

Reference: PubChem BioAssay AID220 (DTP/NCI, 2004)
